Values from PubChem BioAssay AID1224826 (NIAID, 2016)
The whole screen tested about 17,000 reagents; this is a part drawn at random. About 1,110 of all reagents (6.6%) were called active. 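Active means lowered or raised reporter signal; replicate intensities are raw and not normalised per plate.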 Reagents against one gene are numbered here. Not all columns of the deposit are shown. Reagent sequences are not shown.

Purpose: 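Regulators of Tlr4 signalling leading to Tnf-alpha expression in macrophages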 (primary screen)
Cell system: RAW264.7 G9 macrophages from mouse bearing reporters for p65 (GFP) and the Tnf promoter (mCherry)
Reagents: siRNA pool against mouse genes, 100 nM
Time to read-out: 16 h of LPS stimulation, after 2 days of siRNA transfection
Treatment: bacterial lipopolysaccharide (Salmonella minnesota R595), 10 ng/ml
Read-out: 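Nuclear mCherry signal of the Tnf promoter reporter measured by imaging after background removal, scaled to each plate median and turned into robust z-scores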
Reading the numbers: Tnf reporter robust z-score: higher = stronger Tnf promoter reporter signal after LPS
Hit rule: 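a well counts as active at a score of -1.3 or below (Tlr4 knock-down control median) or above 3 (raised signal); controls and wells holding fewer than 50 cells are excluded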
Calls: active = Tnf reporter clearly lowered or raised; inactive = no clear change in Tnf reporter

| Gene | pool no. | Tnf reporter robust z-score | fewer than 50 cells in well | call |
| --- | --- | --- | --- | --- |
| Nefh | 1 | -0.13 | enough cells in well | inactive |
| Xrn2 | 1 | -0.65 | enough cells in well | inactive |
| Lhfpl1 | 1 | 0.12 | enough cells in well | inactive |
| Nopchap1 | 1 | -0.04 | enough cells in well | inactive |
| Rplp1 | 1 | -0.56 | enough cells in well | inactive |
| Cttnbp2nl | 1 | 0.1 | enough cells in well | inactive |
| Ankrd13b | 1 | -0.23 | enough cells in well | inactive |
| Or5m10 | 1 | 1.02 | enough cells in well | inactive |
| Glipr1l2 | 1 | – | fewer than 50 cells per well; well left out of calls | inactive |
| Col17a1 | 1 | -1.27 | enough cells in well | inactive |
| Mrgprh | 1 | -1.89 | enough cells in well | active |
| Gtse1 | 1 | 1.55 | enough cells in well | inactive |
| Rab14 | 1 | 1.21 | enough cells in well | inactive |
| Cidea | 1 | -0.86 | enough cells in well | inactive |
| Upb1 | 1 | – | fewer than 50 cells per well; well left out of calls | inactive |
| Zfp770 | 1 | 0.59 | enough cells in well | inactive |
| Hlf | 1 | 0.01 | enough cells in well | inactive |
| Adad1 | 1 | 2.05 | enough cells in well | inactive |
| B4gat1 | 1 | -0.69 | enough cells in well | inactive |
| 2410004B18Rik | 1 | – | fewer than 50 cells per well; well left out of calls | inactive |
| Cd55b | 1 | 1.75 | enough cells in well | inactive |
| Arid3b | 1 | 0.47 | enough cells in well | inactive |
| Pcdh10 | 1 | – | fewer than 50 cells per well; well left out of calls | inactive |
| Pomt1 | 1 | -0.79 | enough cells in well | inactive |
| Scnn1a | 1 | -0.2 | enough cells in well | inactive |
| Surf2 | 1 | – | fewer than 50 cells per well; well left out of calls | inactive |
| Dph2 | 1 | -1.02 | enough cells in well | inactive |
| Dnajc30 | 1 | 1.6 | enough cells in well | inactive |
| Fastkd3 | 1 | – | fewer than 50 cells per well; well left out of calls | inactive |
| Chrm2 | 1 | 1.16 | enough cells in well | inactive |
| Slc38a3 | 1 | – | fewer than 50 cells per well; well left out of calls | inactive |
| Atxn7l2 | 1 | -0.83 | enough cells in well | inactive |
| Spz1 | 1 | 3.93 | enough cells in well | active |
| Uhmk1 | 1 | -0.77 | enough cells in well | inactive |
| Slitrk5 | 1 | – | fewer than 50 cells per well; well left out of calls | inactive |
| Ptms | 1 | 1.55 | enough cells in well | inactive |
| Olfr900 | 1 | 0.18 | enough cells in well | inactive |
| Tmem130 | 1 | -0.64 | enough cells in well | inactive |
| Trim54 | 1 | -0.31 | enough cells in well | inactive |
| Nudt5 | 1 | 0.16 | enough cells in well | inactive |
| Pdzd7 | 1 | 1.38 | enough cells in well | inactive |
| Siglecg | 1 | 0.22 | enough cells in well | inactive |
| Or14c41 | 1 | -1.29 | enough cells in well | inactive |
| Mbtps1 | 1 | -0.19 | enough cells in well | inactive |
| Tmem51 | 1 | -1.25 | enough cells in well | inactive |
| NALP6 | 1 | -1.03 | enough cells in well | inactive |
| Mtfr2 | 1 | – | fewer than 50 cells per well; well left out of calls | inactive |
| Cntnap1 | 1 | -0.15 | enough cells in well | inactive |
| Hspa13 | 1 | 0.05 | enough cells in well | inactive |
| Agr2 | 1 | -0.25 | enough cells in well | inactive |
| Nlk | 1 | 0.07 | enough cells in well | inactive |
| Selp | 1 | -0.94 | enough cells in well | inactive |
| Creb1 | 1 | -0.33 | enough cells in well | inactive |
| Creb1 | 2 | -0.23 | enough cells in well | inactive |
| Hjurp | 1 | -0.9 | enough cells in well | inactive |
| Ppnr | 1 | 0.66 | enough cells in well | inactive |
| Dpt | 1 | -1.02 | enough cells in well | inactive |
| Dusp8 | 1 | 0.67 | enough cells in well | inactive |
